# Measurements as given in article PMC8825676.
# The chains behind the UniProt entries cited, without tags or fusion partners. Residues count along the entry.
# UniProt Q99KR7, residues 30-206: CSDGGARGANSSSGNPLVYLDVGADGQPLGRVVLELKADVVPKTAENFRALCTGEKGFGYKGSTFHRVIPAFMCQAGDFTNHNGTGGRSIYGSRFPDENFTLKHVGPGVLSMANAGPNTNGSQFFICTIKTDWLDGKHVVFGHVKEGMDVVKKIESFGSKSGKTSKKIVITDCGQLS
# UniProt P02340: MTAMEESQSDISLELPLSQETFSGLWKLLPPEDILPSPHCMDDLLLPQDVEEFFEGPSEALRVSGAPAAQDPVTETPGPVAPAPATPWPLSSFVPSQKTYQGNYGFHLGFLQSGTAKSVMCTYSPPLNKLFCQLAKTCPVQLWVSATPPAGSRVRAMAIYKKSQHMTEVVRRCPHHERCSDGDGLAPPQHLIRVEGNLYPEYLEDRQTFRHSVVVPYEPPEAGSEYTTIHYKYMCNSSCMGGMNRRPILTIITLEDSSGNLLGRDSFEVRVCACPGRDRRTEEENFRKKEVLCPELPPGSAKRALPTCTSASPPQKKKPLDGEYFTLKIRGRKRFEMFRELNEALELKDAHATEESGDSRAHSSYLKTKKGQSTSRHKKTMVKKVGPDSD
# Results are given in words; binding and its absence hold for the method and conditions named. In cells and extracts the contact can be indirect. Some results given as binding are weak or reduced against the parent protein; the word gives no strength.
# Target: Cyclophilin-D (mouse (endogenous in primary murine chondrocytes)) (UniProt Q99KR7)
# Test: co-IP; Mito-IP: mitochondria isolated from primary murine chondrocytes (H2O2 300 uM 4 h, with or without luteolin 20 uM pretreatment), lysed in 20 mM Tris pH 7.4, 135 mM NaCl, 1.5 mM MgCl2, 1 mM EGTA, 10% glycerol, 1% Triton X-100; 400 ug lysate, anti-Cyp-D antibodies, protein G Sepharose, western …
row,binding,Molecule
1,binds,p53 (from UniProt P02340 1-390)
2,binds,"adenine nucleotide translocator-1 (protein, UniProt P48962 1-298) MGDQALSFLKDFLAGGIAAAVSKTAVAPIERVKLLLQVQHASKQISAEKQYKGIIDCVVRIPKEQGFLSFWRGNLANVIRYFPTQALNFAFKDKYKQIFLGGVDRHKQFWRYFAGNLASGGAAGATSLCFVYPLDFARTRLAADVGKGSSQREFNGLGDCLTKIFKSDGLKGLYQGFSVSVQGIIIYRAAYFGVYDTAKGMLPDPKNVHIIVSWMIAQSVTAVAGLVSYPFDTVRRRMMMQSGRKGADIMYTGTLDCWRKIAKDEGANAFFKGAWSNVLRGMGGAFVLVLYDEIKKYV"
